Laboratory results taken from article PMC6882365, “Directed evolution of the PcaV allosteric transcription factor to generate a biosensor for aromatic aldehydes” (Journal of Biological Engineering, 2019).

Legend:
[1] = biological target: T1, Van2 I110V,M113S,N114A (Streptomyces coelicolor) (UniProt Q9XAM6); assay: EMSA; settings: EMSA: 50 mM Tris-HCl, 50 mM KCl, 5 mM MgCl2, 1 mM EDTA, 5% glycerol, 0.1 ug poly(dI-dC), 1 mM DTT, 30 C 20 min (+30 min with ligand), recombinant protein, protein details: N-terminal His-TEV, removed by TEV protease, label: 5' IRD700 on both strands
T1 sequence (looked up, limits assumed): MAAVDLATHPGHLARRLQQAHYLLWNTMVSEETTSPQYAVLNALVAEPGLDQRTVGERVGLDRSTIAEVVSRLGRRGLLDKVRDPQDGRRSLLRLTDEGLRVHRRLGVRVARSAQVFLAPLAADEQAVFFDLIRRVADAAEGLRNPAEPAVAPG

[2] = biological target: T2, PcaV (Streptomyces coelicolor) (UniProt Q9XAM6); assay: EMSA; settings: 5 mM protocatechuic acid (PCA), complex disrupted; EMSA: 50 mM Tris-HCl, 50 mM KCl, 5 mM MgCl2, 1 mM EDTA, 5% glycerol, 0.1 ug poly(dI-dC), 1 mM DTT, 30 C 20 min (+30 min with ligand); recombinant protein; protein details: N-terminal His-TEV, removed by TEV protease; label: 5' IRD700 on both strands
T2 sequence (looked up, limits assumed): T1 sequence (looked up, limits assumed) with V110I, S113M, A114N

TTGACTATACTCAGTGCCCTGACTATGATACT (double strand) [PV Probe (IR700 duplex)]
binding result ([1]; 2.5-12.5 mM protocatechuic acid (PCA), disruption similar to vanillin): binds more weakly | binding result ([1]; 2.5-12.5 mM vanillin, partial disruption): binds more weakly | binding result [2]: no binding

Where a chain is given by its changes, count along the chain named. Construct, isoform or probe ends are uncertain for at least one entry. For part of these data: No signal at the amounts used counts as a negative. Protein sequences can lack the tags named with them. For part of these data: The comparison behind a weaker result is the experiment's own reference, which may not be listed here.
